Experimental data: PubChem BioAssay AID1259254 (NCATS, 2017)

Screen: 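Finding genes that stop cells copying their DNA twice in one cycle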 (primary screen)
Cells: human HCT116 colorectal cancer cells
Reagents: single siRNA against human genes
Duration: 3 days
Measured: 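Nuclei stained with Hoechst and imaged; cell-cycle phase assigned by DNA content; G2 share scaled per plate, non-targeting siRNA 0%, GMNN siRNA 100%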
Reading the numbers: G2 robust z-score: higher = more G2 cells, more excess DNA replication
Hit rule: 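Active siRNAs have a G2 robust z of 5 or more median absolute deviations over the median, which in these data means about 38% or higher of GMNN control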
Shown is a random part of about 59,000 reagents tested. About 1,550 of all reagents (2.6%) were called active. 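G2 share is only a proxy for re-replication; each gene was hit by three separate siRNAs, and active genes were retested.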 Reagents against one gene are numbered here. Further read-outs or replicates are left out here. No sequences are given here. Not given: the amount of reagent.

OR4C13 #1: G2 robust z-score = 1.41; Call = inactive
OR4C13 #2: G2 robust z-score = 0.478; Call = inactive
OR4C13 #3: G2 robust z-score = -0.22; Call = inactive
THG1L #1: G2 robust z-score = -0.0637; Call = inactive
THG1L #2: G2 robust z-score = -0.924; Call = inactive
THG1L #3: G2 robust z-score = -0.437; Call = inactive
YBEY #1: G2 robust z-score = -0.32; Call = inactive
YBEY #2: G2 robust z-score = -1; Call = inactive
YBEY #3: G2 robust z-score = -0.391; Call = inactive
KCNMB2 #1: G2 robust z-score = -0.451; Call = inactive
KCNMB2 #2: G2 robust z-score = 0.0431; Call = inactive
KCNMB2 #3: G2 robust z-score = 3.31; Call = inactive
FOS #1: G2 robust z-score = 0.304; Call = inactive
FOS #2: G2 robust z-score = -0.454; Call = inactive
FOS #3: G2 robust z-score = 0.889; Call = inactive
IL3 #1: G2 robust z-score = -0.651; Call = inactive
IL3 #2: G2 robust z-score = -0.709; Call = inactive
IL3 #3: G2 robust z-score = -0.0527; Call = inactive
ZBTB25 #1: G2 robust z-score = -0.532; Call = inactive
ZBTB25 #2: G2 robust z-score = -0.784; Call = inactive
ZBTB25 #3: G2 robust z-score = 0.312; Call = inactive
CCL13 #1: G2 robust z-score = 0.464; Call = inactive
CCL13 #2: G2 robust z-score = -0.12; Call = inactive
CCL13 #3: G2 robust z-score = 0.164; Call = inactive

Part of the list above, reformatted.
{"Target gene":"YBEY","reagent":2,"G2 robust z-score":-1,"Call":"inactive"}
{"Target gene":"YBEY","reagent":3,"G2 robust z-score":-0.391,"Call":"inactive"}
{"Target gene":"KCNMB2","reagent":1,"G2 robust z-score":-0.451,"Call":"inactive"}
